Experimental data: PubChem BioAssay AID1224829 (NIAID, 2016)

Test: 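Genes needed for LPS-driven NF-kappaB p65 nuclear entry in mouse macrophages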 (follow-up of hits)
Cell system: mouse RAW264.7 G9 macrophage reporter cells
Reagent: single siRNA against mouse genes, 100 nM
Time to read-out: 2 days of siRNA knock-down, then 40 min of LPS before fixing
Challenge: LPS (Salmonella minnesota R595) at 10 ng/ml
Read-out: 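High-content images after 40 min LPS exposure; GFP-p65 nucleus to surrounding ring signal ratio, normalised to plate median and non-targeting control wells, expressed as z-score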
Direction: p65 translocation z-score: higher = more nuclear NF-kappaB p65 after LPS
Rule for the call: 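Active means the replicate-mean z-score lies beyond plus or minus 2, in either direction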
Meaning of the calls: active = changed p65 translocation (either direction); inactive = no clear change
In all, the deposit lists about 3,800 reagents; shown is an unselected part. 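Calls cover raised and lowered translocation; gene median uses one vendor's three siRNAs; qiagen siRNAs acted more weakly than ambion siRNAs.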 Entries without a mark were called inactive. The numbers tell different reagents against one gene apart. Further read-outs or replicates are left out here.

Capns1 #1, siRNA vendor or control pool ambion single siRNA | p65 translocation z-score, replicate mean: -1.79
Capns1 #2, siRNA vendor or control pool ambion single siRNA | p65 translocation z-score, replicate mean: 2.45 (active)
Capns1 #3, siRNA vendor or control pool ambion single siRNA | p65 translocation z-score, replicate mean: -6.16 (active)
Capns1 #4, siRNA vendor or control pool qiagen single siRNA | p65 translocation z-score, replicate mean: 1.01
Capns1 #5, siRNA vendor or control pool qiagen single siRNA | p65 translocation z-score, replicate mean: -0.671
Capns1 #6, siRNA vendor or control pool qiagen single siRNA | p65 translocation z-score, replicate mean: -0.747
Grk5 #1, siRNA vendor or control pool ambion single siRNA | p65 translocation z-score, replicate mean: -1.09
Grk5 #2, siRNA vendor or control pool ambion single siRNA | p65 translocation z-score, replicate mean: -3.41 (active)
Grk5 #3, siRNA vendor or control pool ambion single siRNA | p65 translocation z-score, replicate mean: -1.24
Grk5 #4, siRNA vendor or control pool qiagen single siRNA | p65 translocation z-score, replicate mean: 2.91 (active)
Grk5 #5, siRNA vendor or control pool qiagen single siRNA | p65 translocation z-score, replicate mean: -0.382
Grk5 #6, siRNA vendor or control pool qiagen single siRNA | p65 translocation z-score, replicate mean: 1.5
Cryba4 #1, siRNA vendor or control pool ambion single siRNA | p65 translocation z-score, replicate mean: 1.83
Cryba4 #2, siRNA vendor or control pool ambion single siRNA | p65 translocation z-score, replicate mean: -3.39 (active)
Cryba4 #3, siRNA vendor or control pool ambion single siRNA | p65 translocation z-score, replicate mean: -1.47
Cryba4 #4, siRNA vendor or control pool qiagen single siRNA | p65 translocation z-score, replicate mean: 1.89
Cryba4 #5, siRNA vendor or control pool qiagen single siRNA | p65 translocation z-score, replicate mean: -3.75 (active)
Cryba4 #6, siRNA vendor or control pool qiagen single siRNA | p65 translocation z-score, replicate mean: -1.9
Sv2a #1, siRNA vendor or control pool ambion single siRNA | p65 translocation z-score, replicate mean: 3.87 (active)
Sv2a #2, siRNA vendor or control pool ambion single siRNA | p65 translocation z-score, replicate mean: -2.64 (active)
Sv2a #3, siRNA vendor or control pool ambion single siRNA | p65 translocation z-score, replicate mean: -0.202
Sv2a #4, siRNA vendor or control pool qiagen single siRNA | p65 translocation z-score, replicate mean: 1.45
Sv2a #5, siRNA vendor or control pool qiagen single siRNA | p65 translocation z-score, replicate mean: 3.09 (active)
Sv2a #6, siRNA vendor or control pool qiagen single siRNA | p65 translocation z-score, replicate mean: 2.06 (active)
Atp1b1 #1, siRNA vendor or control pool ambion single siRNA | p65 translocation z-score, replicate mean: -0.422
Atp1b1 #2, siRNA vendor or control pool ambion single siRNA | p65 translocation z-score, replicate mean: 1.28
Atp1b1 #3, siRNA vendor or control pool ambion single siRNA | p65 translocation z-score, replicate mean: -2.32 (active)
Atp1b1 #4, siRNA vendor or control pool qiagen single siRNA | p65 translocation z-score, replicate mean: 1.37
Atp1b1 #5, siRNA vendor or control pool qiagen single siRNA | p65 translocation z-score, replicate mean: 0.249
Atp1b1 #6, siRNA vendor or control pool qiagen single siRNA | p65 translocation z-score, replicate mean: -3.41 (active)

Laid out differently: results already given.
Capns1 #2, siRNA vendor or control pool ambion single siRNA
- p65 translocation z-score, replicate mean: 2.45 (active)

Capns1 #3, siRNA vendor or control pool ambion single siRNA
- p65 translocation z-score, replicate mean: -6.16 (active)

Capns1 #4, siRNA vendor or control pool qiagen single siRNA
- p65 translocation z-score, replicate mean: 1.01
